This note sets out measurements from PMC5732824.

The chains behind the UniProt entries cited, without tags or fusion partners.
UniProt Q92466: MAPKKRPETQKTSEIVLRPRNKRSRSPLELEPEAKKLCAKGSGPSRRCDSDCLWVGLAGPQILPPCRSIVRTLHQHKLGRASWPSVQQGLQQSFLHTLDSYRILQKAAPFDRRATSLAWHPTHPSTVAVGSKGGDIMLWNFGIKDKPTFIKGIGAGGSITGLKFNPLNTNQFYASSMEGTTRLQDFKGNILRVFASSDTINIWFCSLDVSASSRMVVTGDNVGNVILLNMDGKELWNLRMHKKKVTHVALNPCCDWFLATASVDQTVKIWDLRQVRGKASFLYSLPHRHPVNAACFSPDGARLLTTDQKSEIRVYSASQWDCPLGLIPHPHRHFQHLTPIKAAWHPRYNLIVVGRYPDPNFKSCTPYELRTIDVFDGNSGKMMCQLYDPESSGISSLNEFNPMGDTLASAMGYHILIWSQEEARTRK
UniProt Q13111: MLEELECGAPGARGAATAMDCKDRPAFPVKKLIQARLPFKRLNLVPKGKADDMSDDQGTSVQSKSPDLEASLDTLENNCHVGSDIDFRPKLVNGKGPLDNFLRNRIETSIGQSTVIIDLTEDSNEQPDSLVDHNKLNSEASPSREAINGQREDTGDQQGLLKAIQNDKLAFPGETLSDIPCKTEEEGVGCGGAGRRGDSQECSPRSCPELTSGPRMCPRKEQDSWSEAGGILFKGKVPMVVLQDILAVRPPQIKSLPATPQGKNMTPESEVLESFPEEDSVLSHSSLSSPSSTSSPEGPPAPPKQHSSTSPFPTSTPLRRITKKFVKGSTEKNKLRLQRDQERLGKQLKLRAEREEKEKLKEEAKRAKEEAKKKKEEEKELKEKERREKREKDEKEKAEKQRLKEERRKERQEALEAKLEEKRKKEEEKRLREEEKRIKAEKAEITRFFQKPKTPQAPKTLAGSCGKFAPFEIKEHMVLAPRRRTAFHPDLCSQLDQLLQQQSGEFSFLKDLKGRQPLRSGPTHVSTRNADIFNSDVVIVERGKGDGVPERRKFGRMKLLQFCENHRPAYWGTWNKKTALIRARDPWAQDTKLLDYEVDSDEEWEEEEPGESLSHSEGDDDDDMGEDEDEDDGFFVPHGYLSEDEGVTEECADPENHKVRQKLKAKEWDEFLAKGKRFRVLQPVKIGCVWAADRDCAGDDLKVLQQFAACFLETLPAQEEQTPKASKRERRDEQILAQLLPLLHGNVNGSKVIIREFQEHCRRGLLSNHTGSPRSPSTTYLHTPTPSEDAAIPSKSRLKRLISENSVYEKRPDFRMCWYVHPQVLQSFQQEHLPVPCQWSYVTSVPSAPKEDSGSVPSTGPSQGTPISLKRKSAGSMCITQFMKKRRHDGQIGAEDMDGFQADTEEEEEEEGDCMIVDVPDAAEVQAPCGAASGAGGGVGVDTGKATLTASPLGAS
UniProt P12004: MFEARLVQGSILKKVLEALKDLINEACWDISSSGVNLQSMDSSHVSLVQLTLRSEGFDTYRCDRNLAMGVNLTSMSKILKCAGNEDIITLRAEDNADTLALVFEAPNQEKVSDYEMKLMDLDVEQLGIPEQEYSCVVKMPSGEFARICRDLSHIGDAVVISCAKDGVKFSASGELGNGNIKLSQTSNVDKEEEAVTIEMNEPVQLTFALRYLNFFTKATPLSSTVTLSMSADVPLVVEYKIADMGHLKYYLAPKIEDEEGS

These are yes or no findings as the source states them, for the method shown. In cells and extracts the contact can be indirect. Some binding calls cover weakened binding; strength is not graded here.

This experiment deals with damaged DNA binding protein 2 (DDB2), HA- and FLAG-tagged (human) (UniProt Q92466). As to the kind of experiment: co-IP; anti-FLAG M2 beads; nuclease (Benzonase)-releasable soluble chromatin fraction (~500-1000 ug protein) of HeLa-DDB2 cells, parental HeLa as control; RIPA buffer, 4°C overnight; eluted with FLAG peptide; Western blot; with and without DNA damage.

As to “chromatin assembly factor-1 (CAF-1) p150 (from UniProt Q13111 1-956)”, the binding result is reported as “no binding”. Regarding “proliferation cell nuclear antigen (PCNA) (from UniProt P12004 1-261)”, the binding result was “binds”.
